PubChem BioAssay AID1259307 – Sanger Institute, 2017
The whole screen tested 794 reagents; below is an unselected part. Over the whole deposit, 15 (1.9%) were called active. 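Calls reflect lethality without any drug; synergy scores did not enter the calls.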 Unmarked entries are inactive. Viability is capped at 1. Further read-outs or replicates are left out here. Not given: the amount of reagent, the time to read-out.

- Screen: 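siRNA kinome screen seeking kinases whose loss harms SW620 cells alone or with drugs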 (primary screen)
- System: SW620 colorectal cancer cells
- Reagents: siRNA pool against human genes
- Treatment: anchor drugs BYL719 at 1 µM, cetuximab at 5 µg/ml or trametinib at 10 nM, each beside a DMSO vehicle arm
- Detection: 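Cell viability in each well relative to non-targeting controls, averaged over replicates and turned into a robust z-score; synergy with BYL719 (1 µM), cetuximab (5 µg/ml), trametinib (10 nM) versus DMSO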
- Scale: viability robust z-score, no drug and viability vs control, no drug: higher = more viable cells
- Hit rule: 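Essential when the viability robust z-score without drug is under -3; synergy scores are ignored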
- Meaning of the calls: active = essential (lethal alone); inactive = no change alone

MAGI2 → viability robust z-score, no drug = -0.758; viability vs control, no drug = 0.862
HK3 (hexokinase 3) → viability robust z-score, no drug = 0.736; viability vs control, no drug = 1
MPP1 (MAGUK p55 scaffold protein 1) → viability robust z-score, no drug = 0.162; viability vs control, no drug = 0.947
CHEK1 (checkpoint kinase 1) → viability robust z-score, no drug = -1.27; viability vs control, no drug = 0.815
MAPK1 (mitogen-activated protein kinase 1) → viability robust z-score, no drug = -1.54; viability vs control, no drug = 0.79
IP6K2 (inositol hexakisphosphate kinase 2) → viability robust z-score, no drug = 0.209; viability vs control, no drug = 0.951
PKDCC (protein kinase domain containing, cytoplasmic) → viability robust z-score, no drug = -0.709; viability vs control, no drug = 0.867
BCR (BCR activator of RhoGEF and GTPase) → viability robust z-score, no drug = 0.736; viability vs control, no drug = 1
MAP4K4 (mitogen-activated protein kinase kinase kinase kinase 4) → viability robust z-score, no drug = 0.736; viability vs control, no drug = 1
EPHA1 (EPH receptor A1) → viability robust z-score, no drug = -1.09; viability vs control, no drug = 0.832
SIK2 (salt inducible kinase 2) → viability robust z-score, no drug = -0.206; viability vs control, no drug = 0.913
RAD21 (RAD21 cohesin complex component) → viability robust z-score, no drug = -0.46; viability vs control, no drug = 0.89
